In PMC12040169 (PLOS Biology, 2025):
The other results are listed elsewhere or left out.

tested on: T1, CTL2-GFP (C. trachomatis L2/434/Bu, GFP-expressing); set-up: species or system HeLa; Intracellular C. trachomatis growth in HeLa cells, bulk GFP fluorescence relative to DMSO; settings: bulk GFP, single well; 28.5 h, 10 µM; inhibitor
T1 construct: L2/434/Bu, GFP-expressing

**Q.** Which “% of control remaining” value does the source give for `Clc1cc(Cl)cc(-c2cn3ccnc3c(NCc3ccncc3)n2)c1` [CBK066664] here?
**A.** 189.807%

**Q.** With `O=[N+]([O-])c1cc2c(cc1C1NN=C(c3ccccc3)S1)OCO2` (stereo not shown) [CBK262540] as the compound, how does the “% of control remaining” value read?
**A.** 102.832%

**Q.** For `CCc1ccc(-n2nc3ccc(NC(=S)NC(=O)c4cc5ccccc5o4)cc3n2)cc1` [CBK264258], which “% of control remaining” value is on record?
**A.** 100%

**Q.** How did the “% of control remaining” value turn out when `COc1ccc(C2=NN(C(=O)CCC(=O)O)C(c3cccs3)C2)cc1OC` (stereo not shown) [CBK266656] was run?
**A.** 94.7431%

**Q.** Which “% of control remaining” value does the source give for `COC(=O)[C@@H](C)NC(=O)[C@@H]1CN(S(C)(=O)=O)CCN1C(=O)c1cccs1` [CBK289623] here?
**A.** 143.46%

**Q.** `O=C(c1ccncc1)N1C[C@H]2CCc3c(n[nH]c3C(F)(F)F)[C@H]2C1` [CBK282110] was tested. Which “% of control remaining” value did it give?
**A.** 151.357%

**Q.** How did the “% of control remaining” value turn out when `COc1ccc(CN2CCC(N3CCCCC3)CC2)c(OC)c1` [CBK261848] was run?
**A.** 100%

**Q.** `CC(C)C(=O)N1CCCC(n2nc(-c3cccs3)ccc2=O)C1` (stereo not shown) [CBK284038] was tested. Which “% of control remaining” value did it give?
**A.** 107.911%

**Q.** `O=C(CNS(=O)(=O)c1ccc(F)cc1)N1CCOCC1` [CBK042214] was tested. Which “% of control remaining” value did it give?
**A.** 118.747%

**Q.** `CCCCc1cc(C[C@@H]2C[C@H](NS(C)(=O)=O)C2(C)C)no1` [CBK289702] was tested. Which “% of control remaining” value did it give?
**A.** 160.022%

**Q.** With `Nc1nc(SCCCC(=O)NC2CCCCC2)nc2sc3c(c12)CCCC3` [CBK266176] as the compound, how does the “% of control remaining” value read?
**A.** 128.111%

**Q.** How did the “% of control remaining” value turn out when `CN(C)C(=O)CSc1nc2cc(Cl)ccc2c(=O)n1CC1CCCO1` (stereo not shown) [CBK305932] was run?
**A.** 119.143%

**Q.** How did the “% of control remaining” value turn out when `O=C(NCCc1cccs1)NCc1cc(F)ccc1F` [CBK045363] was run?
**A.** 117.059%

**Q.** For `Cc1cc(CC(=O)N2CCC(Cn3cncn3)(C3CCCCC3)CC2)on1` [CBK136795], which “% of control remaining” value is on record?
**A.** 100%

**Q.** For `CC1=C[C@@H](CNC(=O)c2ccccn2)[C@H](C(C)C)C[C@H]1CC(=O)O` [CBK289212], which “% of control remaining” value is on record?
**A.** 127.032%

**Q.** How did the “% of control remaining” value turn out when `COc1ccnc(N2CCCN(CCc3ccc(OC)c(OC)c3)CC2)n1` [CBK084002] was run?
**A.** 129.909%

**Q.** Which “% of control remaining” value does the source give for `COc1ccc2cc(OCCO)ccc2c1` [CBK176054] here?
**A.** 144.776%

**Q.** With `O=C(CC1CCN(Cc2ccccn2)CC1)NCC1(c2ccccc2)CCCC1` [CBK285959] as the compound, how does the “% of control remaining” value read?
**A.** 137.504%

**Q.** Which “% of control remaining” value does the source give for `CCn1c(C(O)c2ccc(OC)c(OC)c2)nc2ccccc21` (stereo not shown) [CBK262974] here?
**A.** 125.367%

**Q.** For `Cc1ccc(OCC(=O)O/N=C(\N)Cc2ccc([N+](=O)[O-])cc2)c(C)c1` [CBK263102], which “% of control remaining” value is on record?
**A.** 113.882%

**Q.** `CC1CCc2c(sc3ncnc(NCC(=O)N4CCCC4)c23)C1` (stereo not shown) [CBK306079] was tested. Which “% of control remaining” value did it give?
**A.** 138.465%

**Q.** Which “% of control remaining” value does the source give for `CN(C)S(=O)(=O)CCNC(=O)c1ccc(-c2ccccc2CO)cc1` [CBK306773] here?
**A.** 113.297%

**Q.** For `O=C1NC2(CCN(C(=O)Cc3c(F)ccc(F)c3F)CC2)Oc2ccc(-c3ccoc3)cc21` [CBK115848], which “% of control remaining” value is on record?
**A.** 105.677%

**Q.** Which “% of control remaining” value does the source give for `Cn1ccnc1C1(O)C2CCCC1CN(CC1CCCCC1)C2` (stereo not shown) [CBK285220] here?
**A.** 152.454%

**Q.** With `O=C1NCC2(C/C=C/CCOc3ccccc31)CCN(C(=O)CCc1ccccc1)CC2` [CBK292017] as the compound, how does the “% of control remaining” value read?
**A.** 129.416%

**Q.** `O=C(Cn1cncn1)c1ccc2c(c1)CCO2` [CBK020087] was tested. Which “% of control remaining” value did it give?
**A.** 106.781%

**Q.** With `COc1cc(Nc2cc(-c3ccccc3N(C)C)ncn2)cc(OC)c1OC` [CBK090702] as the compound, how does the “% of control remaining” value read?
**A.** 138.007%

**Q.** How did the “% of control remaining” value turn out when `COC(=O)[C@H]1Cc2cc3c(cc2[C@H]1c1cc(OC)c(OC)c(OC)c1)OCO3` [CBK200105] was run?
**A.** 65.4029%

**Q.** With `Cn1ccnc1C1(O)CCN(C(=O)Nc2cccc(F)c2)CC1` [CBK282279] as the compound, how does the “% of control remaining” value read?
**A.** 123.583%

**Q.** `COc1ncc(-c2nccnc2OC2CCCCC2)c(OC)n1` [CBK106745] was tested. Which “% of control remaining” value did it give?
**A.** 100%

**Q.** For `O=C(CSc1nnc(CN2CCOCC2)n1-c1ccccc1)N1CCN(c2ccccc2)CC1` [CBK266660], which “% of control remaining” value is on record?
**A.** 155.576%

**Q.** Which “% of control remaining” value does the source give for `CN(C)CCCN(C(=O)c1ccccc1)c1nc2ccc(F)cc2s1` [CBK287640] here?
**A.** 110.402%

**Q.** With `CCC(C)c1ccc(NC(=O)CSc2nc3cccnc3[nH]2)cc1` (stereo not shown) [CBK264349] as the compound, how does the “% of control remaining” value read?
**A.** 100%

**Q.** Which “% of control remaining” value does the source give for `CCCN(Cc1ccoc1)CC1CC1` [CBK018931] here?
**A.** 128.97%

**Q.** `C/C(=N\NC(=O)CC1(C)OCCO1)c1oc(C)cc1C` [CBK022234] was tested. Which “% of control remaining” value did it give?
**A.** 158.413%

**Q.** With `Cc1cccc(C)c1NC(=S)N1CCC2(CC1)OCCO2` [CBK016408] as the compound, how does the “% of control remaining” value read?
**A.** 83.7337%

**Q.** Which “% of control remaining” value does the source give for `O=C(c1ccc(-c2nccnc2NCc2ccco2)cc1)N1CCOCC1` [CBK036920] here?
**A.** 186.298%

**Q.** For `Cc1nc2ccccc2c(=O)n1CC(=O)NCc1ccccc1` [CBK072830], which “% of control remaining” value is on record?
**A.** 104.375%

**Q.** `O=C(CC1Nc2cccc3cccc(c23)NC1=O)Nc1ccccc1` (stereo not shown) [CBK268035] was tested. Which “% of control remaining” value did it give?
**A.** 117.925%

**Q.** How did the “% of control remaining” value turn out when `Cc1cnoc1-c1cc(Cl)cc(Cl)c1O` [CBK015870] was run?
**A.** 114.467%
